# Laboratory results: PubChem BioAssay AID540276 (National Center for Advancing Translational Sciences (NCATS), 2011)
# The whole screen tested about 300,000 compounds, of which about 5,400 (1.8%) were called active. The inconclusive results got no clear call from the source; some entries with a clear call stand among them for comparison. Calls come from the whole dose curve; tested in HEK293 cells. A potency beside an inconclusive call is a rough fit, not a confirmed value.
# Test: qHTS for inhibitors of binding or entry into cells for Marburg Virus
# Conditions: Marburg virus pseudotyped entry inhibition, cell reporter; activity change, negative = inhibition: at 37.8 µM (top of the series) unless noted
# % is set by controls: 0 for no effect and ±100 for the full control effect; potency is the fitted concentration of half-maximal effect.
SMILES,Potency,"activity change, negative = inhibition"
Cc1nc(SCC#N)c2c(C)c(C)sc2n1,"inconclusive: 11.2 µM [activator, partial curve]",
O=C(NCc1cccnc1)C12CC3CC(CC(C3)C1)C2,"inconclusive: 5.62 µM [inhibitor, single point]",
COc1ccc2c(CN3CCCCC3)cc(=O)oc2c1,"inconclusive: 28.1 µM [activator, single point]",
CCOC(=O)c1[nH]c(C)c(C(=O)Nc2ccc(C)c(Cl)c2)c1C,"inconclusive: 13 µM [inhibitor, partial curve, poor fit]",
CC(C)NC(=O)c1cc2c(Cl)nc3ccccc3c2s1,,inactive: 21.2% [at 46.1 µM]
COc1ccc(N=Nc2[nH]c3ccc(C)cc3c2O)cc1,"inconclusive: 29.1 µM [activator, single point]",
Cc1c(CBr)[n+](=O)c2c(n1[O-])C(Br)CCC2Br (configuration not stated),"inconclusive: 3.16 µM [inhibitor, partial curve, poor fit]",
O=S1(=O)CC(N2CCN(CC3CC3)CC2)CN1CCc1ccccc1 (configuration not stated),"inconclusive: 0.0199 µM [activator, full curve, poor fit]",
O=C(Nc1ccccc1)Nc1ccc(Cl)c([N+](=O)[O-])c1,"inconclusive: 13 µM [inhibitor, partial curve, poor fit]",
Cn1c(N)c(C(=O)COC(=O)CNC(=O)c2ccccc2F)c(=O)n(C)c1=O,"inconclusive: 2.82 µM [inhibitor, partial curve]",
CC(/C=N\Nc1nnc2c(n1)[nH]c1c(C)cccc12)=C\c1ccco1,"inconclusive: 18.3 µM [inhibitor, single point]",
Cc1c(C(=O)N2CCCC2)c(S(=O)(=O)Nc2ccccc2)c(C)n1C,"inconclusive: 3.55 µM [inhibitor, single point]",
COc1ccc(Cc2nc3ccc(C(=O)N4CCCC4)cc3o2)cc1OC,"inconclusive: 10 µM [inhibitor, partial curve]",
COc1cccc(CNC(=O)Cn2c(=O)oc3cc(S(=O)(=O)N4CCC(C)CC4)ccc32)c1,,inactive: -18.9% [at 46.1 µM]
O=S1(=O)N=C(Nc2ccc(O)c(CN3CCCCC3)c2)c2ccccc21,,inactive: -19%
CN(C)CCCNc1nc(-c2ccccc2)nc2ccccc12,active: 12.6 µM,
Cc1ccc(CCC(=O)Nc2ccccc2F)s1,,inactive: 6.72% [at 46.1 µM]
O=C(c1cc(-c2ccccc2)on1)N1CCCCCC1,"inconclusive: 35.5 µM [inhibitor, single point]",
Cn1c(O)c(N=NC(=O)Cn2c(C(F)(F)F)nc3ccccc32)c2ccccc21,"inconclusive: 6.31 µM [inhibitor, single point]",
CCN(CC)CCOC(=O)c1cccc2c1-c1ccccc1C2O (configuration not stated),"inconclusive: 3.55 µM [inhibitor, single point]",
O=C(NC1CCN(Cc2ccccc2)CC1)c1ccc2c(c1)[nH]c(=O)n2Cc1ccc(F)cc1,active: 2.82 µM,
Cc1ccc(NC(=O)CCc2ccc(S(=O)(=O)NC3CCCCC3)cc2)cc1,"inconclusive: 0.501 µM [inhibitor, full curve, poor fit]",
Cc1cc(C)cc(OCC(=O)Nc2cccc(-c3nc4ccccc4[nH]3)c2)c1,"inconclusive: 0.355 µM [inhibitor, full curve, poor fit]",

# Given with bars between the fields: part of the list above.
SMILES | Potency | activity change, negative = inhibition
CC(C)NC(=O)c1cc2c(Cl)nc3ccccc3c2s1 |  | inactive: 21.2% [at 46.1 µM]
COc1ccc(N=Nc2[nH]c3ccc(C)cc3c2O)cc1 | inconclusive: 29.1 µM [activator, single point] | 
Cc1c(CBr)[n+](=O)c2c(n1[O-])C(Br)CCC2Br (configuration not stated) | inconclusive: 3.16 µM [inhibitor, partial curve, poor fit] | 

# Going on with the list:

SMILES,Potency,"activity change, negative = inhibition"
Nc1nc2ccccc2n1C(=O)c1ccc(F)cc1,"inconclusive: 1 µM [inhibitor, full curve, poor fit]",
CCC(=O)NC(c1cccc([N+](=O)[O-])c1)c1c(O)ccc2ccccc12 (configuration not stated),"inconclusive: 10 µM [inhibitor, partial curve, poor fit]",
COc1cc(NC(=O)c2oc3ccccc3c2C)ccc1NC(=O)c1ccco1,,inactive: -10.4% [at 46.1 µM]
C=CCn1c(=O)c(C(=O)NCc2ccc3c(c2)OCO3)c(O)c2ccccc21,"inconclusive: 11.2 µM [inhibitor, partial curve, poor fit]",
CC(=O)NCc1ccc(-c2nc3ccccc3s2)cc1,"inconclusive: 13 µM [inhibitor, partial curve, poor fit]",
COc1ccc(CN2CCNC(=O)C2CC(=O)NCC2CCOCC2)c(F)c1 (configuration not stated),,inactive: 12.9%
O=C(CSc1nccn1-c1ccccc1)N1CCc2ccccc21,"inconclusive: 7.08 µM [activator, full curve, poor fit]",
CCOC(=O)c1cc2c(=O)n3ccccc3nc2n(Cc2ccco2)c1=NC(=O)c1ccccc1OC,inactive,
CCOc1cc(NC(=O)c2cccs2)c(OCC)cc1NC(=O)c1ccco1,,inactive: -5.11%
COc1cc(OC)cc(C(=O)NCc2cc(C)nc3ccccc23)c1,"inconclusive: 7.08 µM [inhibitor, full curve]",
CCOC(=O)c1cnn(CCOC(=O)C2CC2)c1NC(=O)C1CC1,"inconclusive: 1.16 µM [inhibitor, single point]",
Cc1ccc(S(=O)(=O)N2CCCC(c3nnc4n3-c3ccccc3SC4)C2)cc1 (configuration not stated),inactive,
Cc1ccc(SCC(=O)NCC2COc3ccccc3O2)cc1 (configuration not stated),,inactive: -17.1%
Cc1[nH]c2ccccc2c1/C=N/NC(=O)CNC(=O)c1cccs1,"inconclusive: 35.5 µM [inhibitor, single point]",
COc1ccc(Cl)cc1N(CC(=O)NC(C)(C)C)S(=O)(=O)c1ccc(C)c([N+](=O)[O-])c1,"inconclusive: 0.251 µM [inhibitor, full curve, poor fit]",
CCOC(=O)C1CCN(C(=O)COc2ccc3c(c2)OCO3)CC1,,inactive: 20.2% [at 46.1 µM]
Cc1ccccc1N(Cc1cc(=O)[nH]c2ccccc12)C(=O)C(C)C,"inconclusive: 3.98 µM [activator, single point]",
NCCc1c(Cc2ccccc2)[nH]c2ccccc12,"inconclusive: 35.5 µM [inhibitor, single point]",
O=S(=O)(Nc1ccc2c(c1)OCCO2)c1cccs1,,inactive: 10.8%
CCC(Cn1nnc2ccccc2c1=O)NC(=O)Nc1cccc(Cl)c1 (configuration not stated),"inconclusive: 35.5 µM [inhibitor, single point]",
Cc1ccc([N+](=O)[O-])cc1NC(=S)NC(=O)c1cccs1,"inconclusive: 3.98 µM [inhibitor, partial curve, poor fit]",
O=S(=O)(/C=C/c1ccccc1)Oc1ccccc1,"inconclusive: 5.17 µM [inhibitor, single point]",
COc1ccccc1CNC(=O)C1CCN(S(=O)(=O)c2cccc3cccnc23)CC1,,inactive: -4.69%

SMILES,Potency,"activity change, negative = inhibition"
COc1ccc(S(=O)(=O)N2CCCCCC2)cc1NC(=O)CN1C(=O)NC(C)(c2ccc(C)cc2)C1=O (configuration not stated),"inconclusive: 35.5 µM [inhibitor, single point]",
COc1ccc2oc(C(=O)N3CCN(S(=O)(=O)c4cccc([N+](=O)[O-])c4)CC3)c(C)c2c1,"inconclusive: 6.31 µM [inhibitor, single point]",
COC(=O)c1cnn(-c2ccccc2)c1-n1cccc1C=O,"inconclusive: 2.24 µM [inhibitor, single point]",
CCSc1nnc(NC(=O)C(C)Sc2nc3ccccc3[nH]2)s1 (configuration not stated),,inactive: 14%
COCC(C)n1c(C)cc(C(=O)COc2ccc(S(=O)(=O)N3CCOCC3)cc2Cl)c1C (configuration not stated),"inconclusive: 11.2 µM [inhibitor, single point]",
Cc1cccc2sc(N(CCCN(C)C)C(=O)COc3ccc(Cl)cc3)nc12,"inconclusive: 14.1 µM [inhibitor, partial curve, poor fit]",
C=C1C(=O)C2=CC1CCC(=O)C1(C)CCC(OC(C)=O)C(C)(C)C1CC2O (configuration not stated),"inconclusive: 2.24 µM [inhibitor, full curve, poor fit]",
COC(=O)c1ccc(NC(=O)Cc2ccccc2)cc1,"inconclusive: 0.164 µM [activator, full curve, poor fit]",
C=CCNc1oc(/C=C/c2ccccc2)nc1C#N,"inconclusive: 18.3 µM [inhibitor, partial curve, poor fit]",
C=C(C)CNC(=S)NNC(=O)CCn1c2cc(Cl)ccc2c2ccc(Cl)cc21,"inconclusive: 1 µM [activator, full curve]",
CC(=O)Nc1nc(NC(=O)C(Cl)(Cl)Cl)n(-c2ccccc2)n1,,inactive: 8.01%
Cc1ccc2cc(C)c(SCC(=O)Nc3ccc(S(=O)(=O)N4CCCC4)cc3)nc2c1,"inconclusive: 12.6 µM [inhibitor, single point]",
COc1ccc(Br)cc1CN(C)CC(=O)Nc1cc([N+](=O)[O-])ccc1OC,"inconclusive: 10 µM [inhibitor, partial curve, poor fit]",
Cc1ccc(-c2nc(NC(=O)c3cc(C(C)(C)C)nn3C)sc2C)cc1Cl,"inconclusive: 3.16 µM [inhibitor, full curve]",
COc1ccc(OC)c(-c2cc(C(F)(F)F)c3c(n2)sc2c(O)cc(=O)[nH]c23)c1,"inconclusive: 3.16 µM [activator, single point]",
COCCNC(=O)CN1C(=O)COc2ccc(Cl)cc21,"inconclusive: 25.9 µM [activator, single point]",
O=C(Nc1ncc(Cc2cccc(Cl)c2)s1)C1CCCO1 (configuration not stated),"inconclusive: 7.08 µM [activator, full curve, poor fit]",
Cc1ccc(-n2c(=O)cc(N3CCc4ccccc4C3)[nH]c2=O)cc1,,inconclusive: 5.01% [activator]
COc1ccc(Cl)cc1NC(=S)NCCSc1ccc(C)cc1,"inconclusive: 3.16 µM [activator, single point]",
CCOC(=O)c1cnn(-c2cccc(F)c2)c1C1CCNCC1,,inactive: -1.26% [at 46.1 µM]
COCCn1cnc2c1c(=O)n(Cc1cc(C(C)=O)ccc1OC)c(=O)n2Cc1ccccc1,"inconclusive: 35.5 µM [inhibitor, single point]",
